{"source": "patent US8318787B2", "about": "“Prodrugs of (3,5-bis(4-fluorophenyl)tetrahydro-1H-oxazolo[3,4-C]oxazol-7A-yl)methanol and derivatives thereof” (University of Kansas, priority 2005, dated 2012)", "key": {"microtubules [1]": {"test_system": "microtubules", "test": "Cold stability of microtubules", "format": "biochemical", "details": "400 μM compound, on ice 15 minutes"}, "Tubulin": {"test_system": "Tubulin", "test": "Tubulin assembly centrifugation assay", "format": "biochemical", "details": "200 μM compound", "description": "In this example, the mechanism of TH-237A's neuroprotective effects was investigated. In a first experiment, the microtubule-stabilizing ability of TH-237A was investigated using a tubulin assembly centrifugation assay. Tubulin (1.0 mg/ml), free of microtubule-associated proteins (“MAPs”), was incubated in PEM buffer (0.1 M Pipes, 1 mM EGTA, 1 mM MgSO4, pH 6.9), 4% DMSO, various concentrations of paclitaxel or TH-237A, with or without 0.5 mM GTP, in a total volume of 0.1 ml for 15 minutes at 37° C. Samples were centrifuged at 50,000×g for 4 minutes in a Beckman TL-100 ultracentrifuge. Protein determinations were performed on the supernatants and the amount of polymer formed was calculated from the difference between the starting concentration and the supernatant concentration. The maximum concentration of polymer was taken to be that formed at 25 μM paclitaxel. An experiment was also done using a tubulin preparation containing microtubule-associated proteins (“MTP”) at a protein concentration of 2 mg/ml without GTP."}, "cellular microtubules": {"test_system": "cellular microtubules", "test": "Immunostaining of cellular microtubules", "format": "cell-based", "details": "50 or 100 μM", "description": "Immunostaining of cellular microtubules—Cells were grown in monolayer on sterile slide cover slips in a 6-well plate and treated with paclitaxel or TH-237A for different periods of time. The cover slips were washed with phosphate-buffered saline and the cells fixed by treatment with 95% EtOH at −20° C. for 30 minutes. The cover slips were placed in a humidified chamber and treated with the primary antibody (a mouse anti-β-tubulin monoclonal antibody) for 2 hours to overnight at room temperature. This was followed by washing with phosphate-buffered saline and treatment with the secondary antibody (FITC goat anti-mouse) for 1 hour at room temperature. Cover slips were examined on a Nikon Optiphot fluorescence microscope."}, "microtubules [2]": {"test_system": "microtubules", "test": "Binding of 3H-labeled compound to microtubules"}, "tubulin (MTP)": {"test_system": "tubulin (MTP)", "test": "Multi-well plate (DAPI fluorescence) tubulin polymerization assay", "format": "biochemical", "details": "MTP 2 mg/ml, no GTP, 10 μM DAPI"}, "microtubules [3]": {"test_system": "microtubules", "test": "Competitive binding of paclitaxel and TH-237A to microtubules", "details": "TH-237A concentration of 400 μM", "description": "Competitive binding of paclitaxel and TH-237A—Microtubules were formed from MTP (2 mg/ml) in the presence of 0.5 mM GTP. […] […] After 10 minutes at 37° C., the microtubules were collected by centrifugation and dissolved in 0.1 ml of 0.1 M NaOH. Protein and radioactivity determinations of the dissolved microtubules were performed."}, "[4]": {"test_system": "mice with the P301L tau mutation", "test": "In vivo treatment of tau-mutant mice, abnormal tau immunoblot and motor pathology", "details": "food restriction, 10 mg/kg sc daily for 15 weeks"}}, "note": "For at least one compound, name, drawing or mass did not settle the structure.", "data": [{"compound": "OC[C@]12CO[C@H](c3ccc(F)cc3)N1[C@H](c1ccc(F)cc1)OC2", "note": "[TH-237A, (3R,5S,7as)-(3,5-bis(4-fluorophenyl)tetrahydro-1H-oxazolo[3,4-c]oxazol-7a-yl)methanol]", "values": [{"measurement": "cold-induced depolymerization of microtubules prevented", "setting": "microtubules [1]", "result": "about 10%"}, {"measurement": "% of tubulin polymerized", "setting": "Tubulin", "result": 10, "unit": "%"}, {"measurement": "stabilization of microtubules in the cells", "setting": "cellular microtubules", "result": "No such stabilization was observed"}, {"measurement": "binding of radiolabeled compound to microtubules", "setting": "microtubules [2]; [3H]-labeled compound, 10 minutes at 37° C.", "result": "did bind to the microtubules"}, {"measurement": "amount of TH-237A relative to Taxol required to achieve a maximal binding level", "setting": "microtubules [2]; [3H]-labeled compounds, microtubules", "result": 10, "unit": "times"}, {"measurement": "potency of Taxol relative to TH-237A in promoting tubulin polymerization", "setting": "tubulin (MTP)", "result": "two orders of magnitude"}, {"measurement": "displacement of labeled Taxol (20 μM) from microtubules", "setting": "microtubules [3]", "result": "about 15%"}, {"measurement": "labeling of abnormal tau (AT8, CP13, PHF1; P3 fractions of brain and spinal cord) versus FR-only mice", "setting": "[4]", "result": "significantly less labeling of abnormal tau"}, {"measurement": "motor pathology", "setting": "[4]", "result": "did not develop motor pathology"}]}]}
